Results taken from paper PMC3873602, “Atheroprotective Vaccination with MHC-II Restricted Peptides from ApoB-100” (Frontiers in Immunology, 2013).

Assay: Lipid analysis of immunized mice
Format: in vivo, mouse
Details: Apoe^−/− mice, 1× CFA + 4× IFA immunization, WD, at 23 weeks; mean ± SD, N = 6–7

MEVGWYRSPFSRVVHLYRNGK [MOG35–55, irrelevant control peptide, myelin oligodendrocyte glycoprotein 35–55]
HDL: 213 ± 7.5 mg/dL | Non-HDL: 801.7 ± 72.4 mg/dL | TC: 1014.7 ± 76.4 mg/dL | TG: 142.3 ± 33.2 mg/dL
